# Assay results: the supplement of paper PMC10849652
# The chains behind the UniProt entries cited, without tags or fusion partners. Where a name states a change or a piece, a line headed by the entry shows the natural chain unless it says otherwise.
# UniProt Q5H9R7: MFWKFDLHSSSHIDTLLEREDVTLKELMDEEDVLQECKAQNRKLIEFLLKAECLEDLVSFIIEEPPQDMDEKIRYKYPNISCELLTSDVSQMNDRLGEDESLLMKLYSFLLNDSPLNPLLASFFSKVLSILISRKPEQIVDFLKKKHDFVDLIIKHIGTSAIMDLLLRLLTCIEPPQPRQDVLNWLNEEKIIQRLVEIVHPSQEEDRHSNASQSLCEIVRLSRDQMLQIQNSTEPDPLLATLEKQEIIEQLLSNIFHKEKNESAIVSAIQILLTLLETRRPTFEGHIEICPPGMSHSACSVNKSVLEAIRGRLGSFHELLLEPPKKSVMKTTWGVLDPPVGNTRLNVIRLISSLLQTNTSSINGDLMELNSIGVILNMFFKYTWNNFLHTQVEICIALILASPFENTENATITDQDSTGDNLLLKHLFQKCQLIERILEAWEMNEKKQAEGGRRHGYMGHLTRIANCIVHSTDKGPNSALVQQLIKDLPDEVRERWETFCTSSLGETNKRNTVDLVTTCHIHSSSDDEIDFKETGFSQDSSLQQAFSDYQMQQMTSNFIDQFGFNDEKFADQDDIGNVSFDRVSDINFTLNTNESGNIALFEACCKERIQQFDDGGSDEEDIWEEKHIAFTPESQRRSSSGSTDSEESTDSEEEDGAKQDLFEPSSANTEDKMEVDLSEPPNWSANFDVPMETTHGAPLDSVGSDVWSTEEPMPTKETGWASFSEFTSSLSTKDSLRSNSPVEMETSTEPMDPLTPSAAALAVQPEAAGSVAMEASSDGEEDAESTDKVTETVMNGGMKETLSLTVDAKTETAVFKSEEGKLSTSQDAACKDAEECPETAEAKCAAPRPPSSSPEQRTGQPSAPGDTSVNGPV
# UniProt O75569: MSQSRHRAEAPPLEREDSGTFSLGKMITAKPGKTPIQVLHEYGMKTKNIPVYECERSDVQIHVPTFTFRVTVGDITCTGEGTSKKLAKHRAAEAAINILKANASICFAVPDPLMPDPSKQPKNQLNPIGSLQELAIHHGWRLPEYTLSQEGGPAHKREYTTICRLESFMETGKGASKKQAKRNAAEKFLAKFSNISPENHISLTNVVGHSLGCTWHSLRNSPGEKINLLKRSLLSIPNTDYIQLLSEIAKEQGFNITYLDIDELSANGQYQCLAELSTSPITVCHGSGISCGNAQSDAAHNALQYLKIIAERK
# UniProt O94906: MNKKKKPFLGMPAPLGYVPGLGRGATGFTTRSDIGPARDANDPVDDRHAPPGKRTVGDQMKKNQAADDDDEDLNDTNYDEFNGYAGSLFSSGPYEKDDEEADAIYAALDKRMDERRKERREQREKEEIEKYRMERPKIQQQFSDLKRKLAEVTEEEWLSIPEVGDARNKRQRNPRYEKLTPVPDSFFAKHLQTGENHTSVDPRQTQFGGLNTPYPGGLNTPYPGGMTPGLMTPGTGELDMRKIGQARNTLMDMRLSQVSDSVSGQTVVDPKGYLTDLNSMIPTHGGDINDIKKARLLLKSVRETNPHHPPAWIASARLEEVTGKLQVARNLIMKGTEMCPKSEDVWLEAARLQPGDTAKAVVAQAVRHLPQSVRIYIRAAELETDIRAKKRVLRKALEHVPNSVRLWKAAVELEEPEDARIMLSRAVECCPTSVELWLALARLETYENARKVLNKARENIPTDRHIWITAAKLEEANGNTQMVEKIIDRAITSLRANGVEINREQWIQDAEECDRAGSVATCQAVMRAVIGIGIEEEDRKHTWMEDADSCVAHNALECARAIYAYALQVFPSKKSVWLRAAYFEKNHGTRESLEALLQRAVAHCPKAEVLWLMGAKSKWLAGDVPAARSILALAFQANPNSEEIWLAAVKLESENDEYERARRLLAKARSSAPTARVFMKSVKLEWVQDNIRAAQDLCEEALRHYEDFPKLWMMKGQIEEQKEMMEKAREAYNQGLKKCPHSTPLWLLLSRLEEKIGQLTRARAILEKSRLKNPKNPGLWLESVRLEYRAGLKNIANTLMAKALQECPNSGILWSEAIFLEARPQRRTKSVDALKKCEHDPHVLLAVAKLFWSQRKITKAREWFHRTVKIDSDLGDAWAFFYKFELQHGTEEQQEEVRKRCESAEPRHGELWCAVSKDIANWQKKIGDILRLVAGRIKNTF
# UniProt O75400: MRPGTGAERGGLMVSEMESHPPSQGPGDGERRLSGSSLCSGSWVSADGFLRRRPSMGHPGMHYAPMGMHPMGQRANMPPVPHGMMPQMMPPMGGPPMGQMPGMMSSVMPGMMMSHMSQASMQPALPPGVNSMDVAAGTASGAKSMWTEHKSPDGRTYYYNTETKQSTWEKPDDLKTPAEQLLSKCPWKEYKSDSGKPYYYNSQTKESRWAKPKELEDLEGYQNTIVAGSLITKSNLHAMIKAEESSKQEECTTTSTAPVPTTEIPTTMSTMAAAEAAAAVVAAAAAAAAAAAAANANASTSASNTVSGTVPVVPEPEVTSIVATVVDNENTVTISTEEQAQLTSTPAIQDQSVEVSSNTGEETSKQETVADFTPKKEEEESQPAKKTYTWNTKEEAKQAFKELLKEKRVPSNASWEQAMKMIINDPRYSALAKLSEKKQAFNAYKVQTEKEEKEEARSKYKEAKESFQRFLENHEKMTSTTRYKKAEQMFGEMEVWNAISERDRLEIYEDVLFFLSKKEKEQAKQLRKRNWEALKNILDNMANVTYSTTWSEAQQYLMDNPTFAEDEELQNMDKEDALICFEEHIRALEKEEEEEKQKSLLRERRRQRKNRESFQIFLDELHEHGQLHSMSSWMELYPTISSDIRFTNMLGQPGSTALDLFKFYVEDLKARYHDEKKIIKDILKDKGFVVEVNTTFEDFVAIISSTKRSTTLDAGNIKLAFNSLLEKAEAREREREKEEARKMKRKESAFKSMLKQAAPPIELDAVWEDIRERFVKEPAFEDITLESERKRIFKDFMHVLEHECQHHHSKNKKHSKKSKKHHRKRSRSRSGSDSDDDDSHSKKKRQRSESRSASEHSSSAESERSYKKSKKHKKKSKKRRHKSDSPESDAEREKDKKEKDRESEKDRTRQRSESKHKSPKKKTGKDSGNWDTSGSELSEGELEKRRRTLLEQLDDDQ
# UniProt P62714, whole entry, looked up: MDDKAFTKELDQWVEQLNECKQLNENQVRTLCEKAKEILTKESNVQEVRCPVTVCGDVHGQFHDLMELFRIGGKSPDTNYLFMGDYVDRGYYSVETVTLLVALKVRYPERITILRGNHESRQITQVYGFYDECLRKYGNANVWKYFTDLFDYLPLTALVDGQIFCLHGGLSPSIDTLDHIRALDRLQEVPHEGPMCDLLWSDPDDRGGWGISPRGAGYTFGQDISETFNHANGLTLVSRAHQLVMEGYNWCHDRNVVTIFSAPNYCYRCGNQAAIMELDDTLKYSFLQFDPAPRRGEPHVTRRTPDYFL
# UniProt Q96BP3: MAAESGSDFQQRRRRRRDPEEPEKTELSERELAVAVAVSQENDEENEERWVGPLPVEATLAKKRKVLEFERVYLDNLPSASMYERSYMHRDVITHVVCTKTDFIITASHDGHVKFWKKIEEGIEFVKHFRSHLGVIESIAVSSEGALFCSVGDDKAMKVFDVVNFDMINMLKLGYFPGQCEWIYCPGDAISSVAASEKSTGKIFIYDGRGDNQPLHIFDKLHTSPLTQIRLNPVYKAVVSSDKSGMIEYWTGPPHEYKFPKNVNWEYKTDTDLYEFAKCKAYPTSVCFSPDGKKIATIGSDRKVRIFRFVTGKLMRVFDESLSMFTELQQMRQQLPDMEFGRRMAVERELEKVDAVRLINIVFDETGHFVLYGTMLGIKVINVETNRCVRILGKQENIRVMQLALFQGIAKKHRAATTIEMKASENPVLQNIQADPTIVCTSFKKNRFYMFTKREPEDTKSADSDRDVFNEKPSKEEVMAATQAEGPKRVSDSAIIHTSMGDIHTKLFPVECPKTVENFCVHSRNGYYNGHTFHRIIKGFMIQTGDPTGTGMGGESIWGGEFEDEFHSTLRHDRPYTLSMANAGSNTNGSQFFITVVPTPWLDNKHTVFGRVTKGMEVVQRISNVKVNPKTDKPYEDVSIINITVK
# UniProt K7ELL7: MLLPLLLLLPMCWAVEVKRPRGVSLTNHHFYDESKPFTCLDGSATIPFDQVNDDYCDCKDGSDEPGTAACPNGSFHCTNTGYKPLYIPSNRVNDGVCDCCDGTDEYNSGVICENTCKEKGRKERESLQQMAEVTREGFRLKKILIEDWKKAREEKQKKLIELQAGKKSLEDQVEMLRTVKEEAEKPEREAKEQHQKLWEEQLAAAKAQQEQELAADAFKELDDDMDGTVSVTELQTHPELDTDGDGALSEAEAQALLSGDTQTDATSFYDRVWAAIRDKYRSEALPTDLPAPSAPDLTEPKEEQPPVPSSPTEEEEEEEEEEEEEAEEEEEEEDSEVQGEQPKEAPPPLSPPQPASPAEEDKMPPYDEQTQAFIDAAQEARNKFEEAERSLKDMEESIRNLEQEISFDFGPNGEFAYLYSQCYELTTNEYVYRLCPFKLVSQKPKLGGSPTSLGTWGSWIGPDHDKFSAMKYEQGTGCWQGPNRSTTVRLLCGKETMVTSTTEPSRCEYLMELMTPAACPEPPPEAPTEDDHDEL
# UniProt P14314: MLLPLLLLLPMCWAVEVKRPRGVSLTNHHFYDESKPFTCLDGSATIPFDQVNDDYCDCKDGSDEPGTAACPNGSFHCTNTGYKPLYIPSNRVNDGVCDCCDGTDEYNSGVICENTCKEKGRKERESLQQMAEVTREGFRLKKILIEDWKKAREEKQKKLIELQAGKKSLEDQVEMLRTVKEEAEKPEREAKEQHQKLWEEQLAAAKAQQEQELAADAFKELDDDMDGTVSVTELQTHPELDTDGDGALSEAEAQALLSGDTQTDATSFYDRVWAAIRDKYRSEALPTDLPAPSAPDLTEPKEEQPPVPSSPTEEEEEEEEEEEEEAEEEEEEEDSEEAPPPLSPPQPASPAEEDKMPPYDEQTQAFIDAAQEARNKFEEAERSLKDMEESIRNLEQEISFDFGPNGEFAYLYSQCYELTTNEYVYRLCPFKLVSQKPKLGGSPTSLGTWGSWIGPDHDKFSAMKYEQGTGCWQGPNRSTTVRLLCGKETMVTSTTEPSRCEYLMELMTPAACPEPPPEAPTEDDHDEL
# UniProt Q96A00: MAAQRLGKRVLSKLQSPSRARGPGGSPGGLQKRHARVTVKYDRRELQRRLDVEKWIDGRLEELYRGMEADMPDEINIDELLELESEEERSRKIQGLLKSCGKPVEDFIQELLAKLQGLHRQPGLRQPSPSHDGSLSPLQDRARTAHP
# UniProt P35813: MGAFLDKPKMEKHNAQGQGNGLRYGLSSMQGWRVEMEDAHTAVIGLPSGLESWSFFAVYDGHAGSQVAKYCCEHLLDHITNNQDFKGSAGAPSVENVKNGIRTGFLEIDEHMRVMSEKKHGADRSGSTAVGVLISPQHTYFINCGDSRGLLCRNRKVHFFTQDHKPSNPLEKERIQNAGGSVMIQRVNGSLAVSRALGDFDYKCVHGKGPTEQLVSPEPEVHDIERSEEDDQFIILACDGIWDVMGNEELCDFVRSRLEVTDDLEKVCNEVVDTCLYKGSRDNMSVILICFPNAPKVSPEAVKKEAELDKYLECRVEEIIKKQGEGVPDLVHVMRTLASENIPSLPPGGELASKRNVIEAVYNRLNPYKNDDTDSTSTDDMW
# UniProt Q9Y478: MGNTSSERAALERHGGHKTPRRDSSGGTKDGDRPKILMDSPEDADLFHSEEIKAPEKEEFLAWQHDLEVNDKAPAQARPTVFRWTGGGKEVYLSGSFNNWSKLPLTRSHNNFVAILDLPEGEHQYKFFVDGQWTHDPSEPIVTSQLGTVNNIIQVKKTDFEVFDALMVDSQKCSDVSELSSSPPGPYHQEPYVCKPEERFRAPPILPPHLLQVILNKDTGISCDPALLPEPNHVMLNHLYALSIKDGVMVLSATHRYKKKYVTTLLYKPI
# UniProt P53041: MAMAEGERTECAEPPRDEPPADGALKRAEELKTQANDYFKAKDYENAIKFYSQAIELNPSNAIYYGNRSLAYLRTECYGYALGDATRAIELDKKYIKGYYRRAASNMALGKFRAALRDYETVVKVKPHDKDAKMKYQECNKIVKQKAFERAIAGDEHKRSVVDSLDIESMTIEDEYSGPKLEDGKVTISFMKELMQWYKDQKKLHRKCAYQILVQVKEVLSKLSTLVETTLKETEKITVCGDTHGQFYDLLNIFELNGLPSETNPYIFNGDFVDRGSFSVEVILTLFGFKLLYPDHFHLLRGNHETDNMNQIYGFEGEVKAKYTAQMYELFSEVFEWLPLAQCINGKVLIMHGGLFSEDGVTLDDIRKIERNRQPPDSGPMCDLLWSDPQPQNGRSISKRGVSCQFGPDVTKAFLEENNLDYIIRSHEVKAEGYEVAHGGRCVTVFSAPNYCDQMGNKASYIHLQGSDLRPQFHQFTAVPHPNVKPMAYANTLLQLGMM
# Some of the results follow.
# What was measured:
# Experiment in all cases: log2 fold change, soluble protein after heating vs DMSO (PISA); higher = thermal stabilisation; K562 lysate, 10 uM; active = over 0.2 and 3.5 SD of the protein, either way, in both replicates (recomputed)
# [1] = compound: Cc1cn(-c2cc(NC(=O)c3ccc(C)c(Nc4nccc(-c5cccnc5)n4)c3)cc(C(F)(F)F)c2)cn1 [nilotinib]
# Outline: (§1)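 Log-two fold change in thermal stability relative to solvent controls is reported from duplicates. For each sample, crude K562 extract from dounce-homogenised pellets in PBS pH 7.4 with 1 mM MgCl2, at 1 mg/mL protein, was treated with 10 μM compound for 30 min. Aliquots heated for 3 min across 48°C-58°C were pooled, brought to 0.5% NP-40 at 4°C and cleared at 21,000xg for 90 min. The supernatant was quantified by TMTpro 16plex LC-MS/MS with channel sums equalised.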
# [2] = compound: Cc1nc(Nc2n[nH]c3c2CN(C(=O)N[C@H](CN(C)C)c2ccccc2)C3(C)C)c2sccc2n1
# Outline: as §1
# [3] = compound: Cc1nc(Nc2ncc(C(=O)Nc3c(C)cccc3Cl)s2)cc(N2CCN(CCO)CC2)n1 [dasatinib]
# Outline: as §1
# [4] = compound: Cc1ncc(-c2ccnc(Nc3ccc(S(C)(=O)=O)cc3)n2)n1C(C)C
# Outline: as §1
# [5] = compound: Cn1cc(-c2ccc3c(c2)CCN3C(=O)Cc2cccc(C(F)(F)F)c2)c2c(N)ncnc21
# Outline: as §1
# [6] = compound: Cn1cc(CNCC2CCN(c3ncc(C(=O)NO)cn3)CC2)c2ccccc21 [quisinostat]
# Outline: as §1
# [7] = compound: Cn1cncc1[C@@](N)(c1ccc(Cl)cc1)c1ccc2c(c1)c(-c1cccc(Cl)c1)cc(=O)n2C [tipifarnib]
# Outline: as §1
# [8] = compound: NC(=O)Nc1cc(-c2cccc(F)c2)sc1C(=O)N[C@H]1CCCNC1
# Outline: as §1
# [9] = compound: NC(=O)c1cnc(N[C@@H]2CCCC[C@@H]2N)nc1Nc1cccc(-n2nccn2)c1
# Outline: as §1
# [10] = compound: NC1(c2ccc(-c3nc4ccn5c(=O)[nH]nc5c4cc3-c3ccccc3)cc2)CCC1
# Outline: as §1
# [11] = compound: NCC(=O)Nc1ccc(-n2nc(C(F)(F)F)cc2-c2ccc3c(ccc4ccccc43)c2)cc1
# Outline: as §1
# [12] = compound: O=C(CCCCCCC(=O)Nc1ccccc1)NO [vorinostat]
# Outline: as §1
# [13] = compound: O=C(O)c1ccc2c(c1)nc(Nc1cccc(Cl)c1)c1ccncc12 [silmitasertib]
# Outline: as §1
# [14] = compound: O=C1NC(=O)C(c2cnc3ccccn23)=C1c1cn2c3c(cc(F)cc13)CN(C(=O)N1CCCCC1)CC2
# Outline: as §1
# [15] = compound: c1cn2cc(-c3ccc4cn[nH]c4c3)nc(Nc3ccc(N4CCOCC4)cc3)c2n1 [entospletinib]
# Outline: as §1
Target,log2 fold change [1],log2 fold change [2],log2 fold change [3],log2 fold change [4],log2 fold change [5],log2 fold change [6],log2 fold change [7],log2 fold change [8],log2 fold change [9],log2 fold change [10],log2 fold change [11],log2 fold change [12],log2 fold change [13],log2 fold change [14],log2 fold change [15]
PRMT5 (UniProt O14744),inactive: 0,inactive: 0.005,inactive: 0.094,inactive: -0.024,inactive: -0.028,inactive: -0.027,inactive: 0,inactive: 0.035,inactive: -0.015,inactive: -0.019,inactive: 0.012,inactive: 0.013,inactive: -0.037,inactive: 0.001,inactive: 0.013
PRKAR1A (UniProt P10644),inactive: 0.017,inactive: -0.1,inactive: -0.023,inactive: 0.027,inactive: 0.086,inactive: -0.001,inactive: 0.033,inactive: -0.025,inactive: 0.111,inactive: 0.011,inactive: -0.01,inactive: 0.003,inactive: 0.048,inactive: 0.02,inactive: 0.002
PPP2R5C isoform 5 (UniProt Q13362),inactive: 0.016,inactive: 0.003,inactive: -0.053,inactive: 0.022,inactive: -0.005,inactive: 0.016,inactive: 0.074,inactive: 0.032,inactive: 0.059,inactive: -0.019,inactive: 0.002,inactive: 0.049,inactive: 0.019,inactive: 0.022,inactive: 0.011
PPP6R3 isoform 5 (UniProt Q5H9R7),inactive: -0.015,inactive: 0.012,inactive: 0.015,inactive: 0.003,inactive: 0.011,inactive: -0.052,inactive: -0.011,inactive: -0.001,inactive: -0.006,inactive: -0.048,inactive: 0.001,inactive: 0.033,inactive: 0.01,inactive: 0.002,inactive: 0.012
PPP2R2D (UniProt Q66LE6),inactive: 0.042,inactive: -0.023,inactive: -0.045,inactive: -0.081,inactive: 0.067,inactive: 0.064,inactive: -0.07,inactive: 0.027,inactive: -0.099,inactive: -0.002,inactive: 0.05,inactive: 0.006,inactive: 0.055,inactive: -0.022,
PRKRA (UniProt O75569),inactive: 0,inactive: -0.001,inactive: -0.01,inactive: 0.034,inactive: 0.029,inactive: -0.058,inactive: 0.016,inactive: 0.036,inactive: 0.012,inactive: -0.043,inactive: 0.023,active: -0.773,inactive: -0.022,inactive: 0.024,inactive: 0.041
PRPF6 (UniProt O94906),inactive: -0.001,inactive: 0.021,inactive: -0.036,inactive: -0.005,inactive: 0.026,inactive: -0.067,inactive: 0.008,inactive: 0.044,inactive: 0.022,inactive: -0.019,inactive: 0.002,active: -0.262,inactive: 0.047,inactive: 0.004,inactive: 0.026
PRDX3 (UniProt P30048),inactive: 0.002,inactive: 0.013,inactive: 0.039,inactive: 0.024,inactive: -0.065,inactive: -0.05,inactive: -0.002,inactive: -0.012,inactive: -0.046,inactive: 0.038,inactive: -0.012,inactive: 0.094,inactive: -0.036,inactive: 0.015,inactive: -0.007
PPP6C isoform 3 (UniProt O00743),inactive: 0.029,inactive: 0.012,inactive: 0.008,inactive: 0.006,inactive: -0.011,inactive: 0.009,inactive: 0.023,inactive: -0.009,inactive: 0.005,inactive: 0.006,inactive: -0.002,inactive: 0.07,inactive: 0.027,inactive: -0.014,inactive: 0.001
PRPF40A (UniProt O75400),inactive: 0.013,inactive: -0.011,inactive: -0.026,inactive: -0.006,inactive: 0.019,inactive: 0,inactive: -0.001,inactive: 0.02,inactive: 0.005,inactive: 0.046,inactive: 0.025,inactive: -0.024,inactive: -0.021,inactive: -0.03,inactive: 0
PPP2CB (UniProt P62714),inactive: 0.036,inactive: 0.021,inactive: 0.025,inactive: 0.041,inactive: -0.021,inactive: 0.036,inactive: -0.022,inactive: -0.026,inactive: 0.002,inactive: -0.038,inactive: 0.005,inactive: 0.054,inactive: 0,inactive: 0.006,inactive: -0.013
PPP1R10 (UniProt Q96QC0),inactive: -0.021,inactive: 0.038,inactive: 0.01,inactive: 0.007,inactive: 0.007,inactive: 0.005,inactive: -0.068,inactive: 0.002,inactive: -0.041,inactive: 0.013,inactive: 0.002,inactive: -0.02,inactive: -0.024,inactive: -0.022,inactive: -0.045
PPWD1 (UniProt Q96BP3),inactive: -0.005,inactive: 0.01,inactive: -0.021,inactive: 0,inactive: 0.009,inactive: -0.03,inactive: 0.004,inactive: -0.009,inactive: -0.011,inactive: -0.008,inactive: 0.048,inactive: 0.051,inactive: -0.036,inactive: -0.014,inactive: -0.006
PPP6R2 isoform 5 (UniProt O75170),inactive: 0.025,inactive: -0.041,inactive: -0.027,inactive: 0.023,inactive: 0.006,inactive: -0.01,inactive: -0.003,inactive: 0.014,inactive: 0.023,inactive: -0.021,inactive: 0.052,inactive: 0,inactive: 0.015,inactive: 0.025,inactive: -0.004
PRMT6 (UniProt Q96LA8),inactive: -0.045,inactive: 0.025,inactive: 0.018,inactive: 0.002,inactive: 0.102,inactive: -0.028,inactive: 0.012,inactive: 0.051,inactive: 0.003,inactive: 0.021,inactive: -0.019,inactive: -0.059,inactive: 0.077,inactive: 0.027,inactive: 0.042
PRKCSH (UniProt K7ELL7),inactive: -0.013,inactive: -0.163,inactive: 0.014,inactive: 0.125,inactive: -0.015,inactive: 0.04,inactive: 0.024,inactive: 0.024,inactive: -0.032,inactive: -0.031,inactive: 0.132,inactive: 0.109,inactive: 0.016,inactive: 0.016,inactive: -0.097
PRKCSH isoform 2 (UniProt P14314),inactive: -0.004,inactive: 0.099,inactive: 0.088,inactive: 0.116,inactive: 0.003,inactive: -0.157,inactive: -0.081,inactive: -0.079,inactive: 0.038,inactive: -0.192,inactive: -0.046,inactive: 0.126,inactive: -0.057,inactive: -0.019,inactive: 0.037
PPP1R14A (UniProt Q96A00),inactive: -0.06,inactive: -0.003,inactive: -0.029,inactive: 0.037,inactive: -0.001,inactive: -0.017,inactive: 0.035,inactive: -0.031,inactive: -0.017,inactive: 0.013,inactive: 0.043,inactive: 0.169,inactive: -0.004,inactive: 0.016,inactive: 0.034
PPM1A isoform 3 (UniProt P35813),inactive: -0.033,inactive: 0.024,inactive: 0.026,inactive: -0.042,inactive: 0.034,inactive: 0.022,inactive: -0.026,inactive: 0.016,inactive: 0.062,inactive: -0.043,inactive: 0.14,inactive: -0.025,inactive: 0.044,inactive: -0.069,inactive: -0.011
PRKAB1 (UniProt Q9Y478),inactive: -0.018,inactive: 0.109,inactive: 0.038,inactive: 0.102,inactive: 0.012,inactive: -0.072,inactive: -0.037,inactive: 0.092,inactive: 0.024,inactive: 0.023,inactive: 0.013,inactive: -0.046,inactive: 0.04,inactive: 0.023,inactive: -0.014
PPP5C (UniProt P53041),inactive: 0.026,inactive: -0.016,inactive: 0.017,inactive: 0.008,inactive: 0.005,inactive: 0.001,inactive: 0.004,inactive: -0.023,inactive: -0.004,inactive: -0.017,inactive: 0.016,inactive: 0.076,inactive: -0.012,inactive: -0.024,inactive: 0.009

# 2 successive records already listed, quoted:
Target,log2 fold change [1],log2 fold change [2],log2 fold change [3],log2 fold change [4],log2 fold change [5],log2 fold change [6],log2 fold change [7],log2 fold change [8],log2 fold change [9],log2 fold change [10],log2 fold change [11],log2 fold change [12],log2 fold change [13],log2 fold change [14],log2 fold change [15]
PPP2R2D (UniProt Q66LE6),inactive: 0.042,inactive: -0.023,inactive: -0.045,inactive: -0.081,inactive: 0.067,inactive: 0.064,inactive: -0.07,inactive: 0.027,inactive: -0.099,inactive: -0.002,inactive: 0.05,inactive: 0.006,inactive: 0.055,inactive: -0.022,
PRKRA (UniProt O75569),inactive: 0,inactive: -0.001,inactive: -0.01,inactive: 0.034,inactive: 0.029,inactive: -0.058,inactive: 0.016,inactive: 0.036,inactive: 0.012,inactive: -0.043,inactive: 0.023,active: -0.773,inactive: -0.022,inactive: 0.024,inactive: 0.041
